In US20220331423A1 (WISTAR INSTITUTE OF ANATOMY AND BIOLOGY, published 2022):
No constants are given. Whether binding was seen depends on the method and setting. Some results given as binding are weak or reduced against the parent protein; the word gives no strength.

By UniProt entry, the sequences of proteins in these tests, tags left out. Residues count along the entry.
UniProt Q92956, residues 39-200: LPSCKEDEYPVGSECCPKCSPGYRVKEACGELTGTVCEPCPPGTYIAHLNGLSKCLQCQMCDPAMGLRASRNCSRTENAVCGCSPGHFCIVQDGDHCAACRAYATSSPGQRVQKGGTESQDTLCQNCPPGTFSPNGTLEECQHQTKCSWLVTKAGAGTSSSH

Target: purified human HVEM (herpes virus entry mediator), coated on ELISA plates (human) (UniProt Q92956)
Experiment: ELISA: gD-normalized extracts of AdC68gD-infected CHO-CAR cells on plates coated with purified HVEM

**Q.** How did the binding turn out when “HSV-1 glycoprotein D (gD), non-fused, expressed from AdC68gD (from UniProt Q05059 26-394) (ligand)” was run?
**A.** The binding was “binds”.
